Laboratory results: article PMC4178188, “RIG-I Self-Oligomerization Is Either Dispensable or Very Transient for Signal Transduction”
The exact form of at least one protein or probe is not confirmed. Results from cells or extracts need not show a direct contact. Tags and fusion partners may be left off the protein sequences shown.

Molecular target: T1, Flag-RIG-I (UniProt O95786)
T1 sequence (looked up, limits assumed): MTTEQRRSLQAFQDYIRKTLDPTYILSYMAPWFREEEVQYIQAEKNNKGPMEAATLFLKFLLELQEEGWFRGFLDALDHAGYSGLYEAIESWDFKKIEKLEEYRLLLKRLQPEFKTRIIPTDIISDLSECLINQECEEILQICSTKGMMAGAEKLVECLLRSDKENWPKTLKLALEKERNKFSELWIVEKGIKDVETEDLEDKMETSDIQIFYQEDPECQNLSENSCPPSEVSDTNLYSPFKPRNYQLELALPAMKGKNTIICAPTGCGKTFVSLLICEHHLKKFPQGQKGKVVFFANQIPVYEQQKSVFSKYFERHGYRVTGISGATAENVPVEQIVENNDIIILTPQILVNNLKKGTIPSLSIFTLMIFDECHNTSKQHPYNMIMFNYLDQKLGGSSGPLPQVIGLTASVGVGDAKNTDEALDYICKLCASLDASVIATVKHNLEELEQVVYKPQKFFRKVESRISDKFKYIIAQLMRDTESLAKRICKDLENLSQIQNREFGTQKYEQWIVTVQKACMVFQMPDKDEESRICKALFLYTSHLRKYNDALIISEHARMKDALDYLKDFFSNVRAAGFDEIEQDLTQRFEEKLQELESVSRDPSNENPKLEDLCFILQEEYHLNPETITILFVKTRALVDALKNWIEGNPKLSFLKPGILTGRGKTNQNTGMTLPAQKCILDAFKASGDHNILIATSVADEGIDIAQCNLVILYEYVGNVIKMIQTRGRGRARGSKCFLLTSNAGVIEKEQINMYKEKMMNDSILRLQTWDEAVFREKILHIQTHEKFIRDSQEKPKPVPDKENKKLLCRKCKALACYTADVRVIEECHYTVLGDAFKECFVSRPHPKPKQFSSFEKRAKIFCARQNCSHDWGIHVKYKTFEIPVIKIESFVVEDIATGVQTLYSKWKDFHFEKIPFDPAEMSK
Assay: pull-down (anti-Flag IP of transfected RNA, RT-PCR)
Conditions: RNA transfected in Huh7.5 cells, harvest 6 h; 5'-triphosphate; SEC-MALLS: 37 mM RIG-I, 2 mM ATP analogue, S200 column; protein in a lysate after overexpression; protein details: Flag

Sequence: GGACCAAACAAAGUUGGGUAAGGAUAGAUCAAUCAAUGAUCAUAUUCUAGUACACUUGAAUUC [Measles leader 5'ppp-RNA (MeV-L)]
- binding result: binds
